Where two headings read alike, the source gives them in different places. Structures were worked out from names or drawings and are uncertain.
Assays:
TRAF6/Uev1A/Ubc13 = TRAF6/Uev1A/Ubc13 (Homo sapiens, UniProt Q9Y4K3); assay: TRAF6/Uev1A/Ubc13 plate-based ubiquitin ligase assay; details: read-out: TRAF6/Ubc13 IC50
APC11/APC2 = APC11/APC2 (Homo sapiens, UniProt Q9NYG5+Q9UJX6); assay: APC-11/APC-2 ligase assay (APC auto ubiquitination); details: read-out: APC IC50; APC assay
[1] = test system: ICAM-1 expression in A549 cells; assay: ICAM assay (IL-1 induced ICAM-1/CD54 expression in A549 cells); type: cell-based, human; details: read-out: ICAM
A549 cells = assay: Cell proliferation PAD assay, A549; type: cell-based
H1299 cells = assay: Cell proliferation PAD assay, H1299; type: cell-based
ROC1/CUL1 = ROC1/CUL1 (Homo sapiens, UniProt P62877+Q13616); assay: ROC1/CUL1 ubiquitin ligase assay (SCF assay); type: biochemical; details: read-out: SCF
Description: Inhibition of ubiquitin ligase activity of E1+E2+E3 was measured using the protocol as described in WO 01/75145 with E3 as the ROC1/CUL1, ROC1/CUL2, or ROC2/CUL5 complex.
The wells of nickel-substrate 96-well plates (Pierce Chemical) are blocked with 100 μl of 1 casein/phosphate buffered saline (PBS) for 1 hour at room temperature, then washed with 200 μl of PBST (0.1% Tween-20 in PBS) 3 times. To each well is added the following Flag-ubiquitin (see above) reaction solution: 62.5 mM Tris pH 7.5, 6.25 mm MgCl2, 0.75 mM DTT, 2.5 mM ATP, 2.5 mM NaF1, 2.5 nM Okadaic acid, 100 ng Flag-ubiquitin (made as described above).
The buffer solution is brought to a final volume of 80 μl with Milipore-filtered water, followed by the addition of 10 μl DMSO.
To the above solution is then added 10 μl of ubiquitination enzymes in 20 mM Tris buffer, pH 7.5, and 5% glycerol. E2-Ubch5c and E3-His ROC1/Cul1, ROC1/CUL2, and ROC2/CUL5 are made as described in WO 01/75145. E1 is obtained commercially (Affiniti Research Products, Exeter, U. K.). The following amounts of each enzyme are used for these assays: 5 ng/well of E1; […] E2; and 100 ng/well His-E3. Varying amounts of compounds according to the invention are added and the reaction allowed to proceed at room temperature for 1 hour.
Following the ubiquitination reaction, the wells are washed with 200 μl of PBST 3 times. For measurement of the enzyme-bound ubiquitin, 100 gel of Mouse anti-Flag (1:10,000) and anti-Mouse Ig-HRP (1:15, 000) in PBST are added to each well and allowed to incubate at room temperature for 1 hour. The wells are then washed with 200 μl of PBST 3 times, followed by the addition of 100 μl of luminol substrate (1/5 dilution). Luminescence for each well is then measured using a fluorimeter.
Table 2 below illustrates the inhibitory activity of the compounds of the invention determined by the TRAF6/Uev1A/Ubc13 assay as well as in the ICAM, APC and the ROC1/CUL1 Ubiquitin Ligase Assay (SCF Assay). The IC50 values were determined using a various concentrations of the compounds.

By UniProt entry, the sequences of proteins in these tests, tags left out.
UniProt Q9Y4K3, whole entry: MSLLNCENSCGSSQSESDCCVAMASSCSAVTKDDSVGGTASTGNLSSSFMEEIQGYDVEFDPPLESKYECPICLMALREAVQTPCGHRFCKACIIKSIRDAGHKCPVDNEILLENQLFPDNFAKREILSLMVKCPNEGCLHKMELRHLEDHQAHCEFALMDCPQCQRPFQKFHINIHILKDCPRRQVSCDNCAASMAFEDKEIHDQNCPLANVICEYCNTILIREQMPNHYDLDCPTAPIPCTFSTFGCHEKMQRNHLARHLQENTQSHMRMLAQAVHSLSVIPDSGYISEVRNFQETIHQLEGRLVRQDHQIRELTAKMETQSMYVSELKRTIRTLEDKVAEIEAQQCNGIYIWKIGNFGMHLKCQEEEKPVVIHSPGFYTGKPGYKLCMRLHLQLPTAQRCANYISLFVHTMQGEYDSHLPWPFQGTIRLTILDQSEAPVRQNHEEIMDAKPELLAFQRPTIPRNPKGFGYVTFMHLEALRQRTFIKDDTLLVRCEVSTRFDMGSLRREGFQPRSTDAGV
UniProt Q9NYG5, whole entry: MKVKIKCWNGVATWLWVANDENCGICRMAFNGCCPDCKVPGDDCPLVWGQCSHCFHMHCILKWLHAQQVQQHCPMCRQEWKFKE
UniProt Q9UJX6, whole entry: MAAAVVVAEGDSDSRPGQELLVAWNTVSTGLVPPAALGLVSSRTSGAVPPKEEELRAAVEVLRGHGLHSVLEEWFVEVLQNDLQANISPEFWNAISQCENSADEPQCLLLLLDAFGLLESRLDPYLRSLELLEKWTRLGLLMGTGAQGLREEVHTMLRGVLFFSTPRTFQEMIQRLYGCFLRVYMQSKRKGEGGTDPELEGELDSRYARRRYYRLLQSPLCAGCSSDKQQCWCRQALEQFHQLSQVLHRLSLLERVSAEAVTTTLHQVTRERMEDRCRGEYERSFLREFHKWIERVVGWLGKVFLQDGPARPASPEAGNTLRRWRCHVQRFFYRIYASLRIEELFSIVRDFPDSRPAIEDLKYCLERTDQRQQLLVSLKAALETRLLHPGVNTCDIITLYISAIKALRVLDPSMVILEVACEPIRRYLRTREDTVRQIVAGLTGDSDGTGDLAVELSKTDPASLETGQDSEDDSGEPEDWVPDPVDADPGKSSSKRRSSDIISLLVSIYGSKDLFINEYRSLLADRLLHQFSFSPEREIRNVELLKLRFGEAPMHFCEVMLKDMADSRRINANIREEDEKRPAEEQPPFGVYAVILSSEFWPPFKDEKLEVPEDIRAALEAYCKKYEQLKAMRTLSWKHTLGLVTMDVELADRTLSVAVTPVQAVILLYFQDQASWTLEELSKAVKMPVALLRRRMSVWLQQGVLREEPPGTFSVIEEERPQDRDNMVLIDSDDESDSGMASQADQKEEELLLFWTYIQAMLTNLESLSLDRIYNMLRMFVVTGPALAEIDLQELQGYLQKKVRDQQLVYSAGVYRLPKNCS
UniProt P62877, whole entry: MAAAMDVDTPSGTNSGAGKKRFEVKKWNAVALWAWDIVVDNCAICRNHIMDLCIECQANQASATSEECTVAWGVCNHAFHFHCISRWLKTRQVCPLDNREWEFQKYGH
UniProt Q13616, whole entry: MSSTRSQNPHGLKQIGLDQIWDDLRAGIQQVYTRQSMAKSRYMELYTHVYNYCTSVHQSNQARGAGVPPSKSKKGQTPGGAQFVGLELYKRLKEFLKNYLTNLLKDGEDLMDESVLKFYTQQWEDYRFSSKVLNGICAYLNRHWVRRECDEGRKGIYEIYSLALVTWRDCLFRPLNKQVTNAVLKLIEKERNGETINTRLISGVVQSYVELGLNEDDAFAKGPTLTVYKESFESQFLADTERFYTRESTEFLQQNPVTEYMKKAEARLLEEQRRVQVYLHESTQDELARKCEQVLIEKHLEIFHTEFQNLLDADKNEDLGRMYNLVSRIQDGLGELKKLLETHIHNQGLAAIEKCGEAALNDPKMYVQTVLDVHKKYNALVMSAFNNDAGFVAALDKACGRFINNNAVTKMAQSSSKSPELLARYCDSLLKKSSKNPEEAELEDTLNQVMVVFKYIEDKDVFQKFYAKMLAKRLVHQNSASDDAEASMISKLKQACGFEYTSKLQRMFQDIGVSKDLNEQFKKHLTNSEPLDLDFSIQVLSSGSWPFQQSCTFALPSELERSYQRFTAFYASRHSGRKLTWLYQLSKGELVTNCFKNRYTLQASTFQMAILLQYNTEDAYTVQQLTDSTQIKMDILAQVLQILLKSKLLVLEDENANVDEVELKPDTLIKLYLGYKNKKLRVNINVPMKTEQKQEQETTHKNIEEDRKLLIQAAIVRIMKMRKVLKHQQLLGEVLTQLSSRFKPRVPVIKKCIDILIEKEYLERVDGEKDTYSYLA

OVCAR8 cells = assay: Cell proliferation PAD assay, OVCAR8; type: cell-based; details: read-out: OVCAR8 6pt, 48 hours
UACC-257 cells = assay: Cell proliferation PAD assay, UACC-257; type: cell-based; details: read-out: UACC257 6pt, 48 hours
[2] = read-out: A549 3pt, 3pt, 48 hours
[3] = read-out: A549 6pt, 6pt, 48 hours
[4] = read-out: H1299 3pt, 3pt, 48 hours
[5] = read-out: H1299 6pt, 6pt, 48 hours

| SMILES | IC50 (TRAF6/Uev1A/Ubc13) [µM] | IC50 (APC11/APC2) [µM] | IC50 [1] [µM] | IC50 (A549 cells; [2]) [µM] | IC50 (A549 cells; [3]) [µM] | IC50 (H1299 cells; [4]) [µM] | IC50 (H1299 cells; [5]) [µM] | IC50 (ROC1/CUL1) [µM] | IC50 (OVCAR8 cells) [µM] | IC50 (UACC-257 cells) [µM] |
| --- | --- | --- | --- | --- | --- | --- | --- | --- | --- | --- |
| COc1ccccc1Sc1ccc(S(=O)(=O)N2CCN(c3ccccc3)CC2)c2nonc12 | 1 to 20 | – | – | – | – | – | – | – | – | – |
| O=S(=O)(Nc1ccc(F)cc1)c1ccc(N2CCOCC2)c2nonc12 | > 20 | > 20 | > 20 | – | – | – | – | – | – | – |
| O=S(=O)(c1ccc(Sc2cccc3cccnc23)c2nonc12)N1CCC(O)(c2ccc(Cl)cc2)CC1 | < 1 | – | – | > 20 | 1 to 20 | > 20 | 1 to 20 | – | – | – |
| Cc1cccc(N2CCN(S(=O)(=O)c3c(Sc4cccc5cccnc45)ccc4nonc34)CC2)n1 | 1 to 20 | – | – | 1 to 20 | – | > 20 | – | > 20 | – | – |
| O=S(=O)(c1ccc(F)c2nonc12)N1CCC2(CC1)OCc1ccccc12 | 1 to 20 | – | – | 1 to 20 | – | 1 to 20 | – | > 20 | – | – |
| O=S(=O)(Nc1ccc(Oc2ccc(F)cc2)c(Br)c1)c1cccc2nonc12 | > 20 | – | – | > 20 | > 20 | > 20 | > 20 | – | > 20 | > 20 |
| O=S(=O)(c1c(Cl)ccc2nonc12)N1CCC2(CC1)OCc1ccccc12 | 1 to 20 | – | > 20 | < 1 | – | 1 to 20 | – | > 20 | – | – |
| O=[N+]([O-])c1ccc(Oc2ccc(S(=O)(=O)Nc3cccc4nsnc34)cc2Cl)c(C(F)(F)F)c1 | 1 to 20 | 1 to 20 | – | 1 to 20 | – | 1 to 20 | – | – | 1 to 20 | > 20 |
| CN1CCN(S(=O)(=O)c2ccc(Sc3ccc4ccccc4c3)c3nonc23)CC1 | 1 to 20 | – | – | 1 to 20 | – | 1 to 20 | – | > 20 | – | – |
| O=S(=O)(c1c(Sc2cccc3cccnc23)ccc2nonc12)N1CCN(c2cnccn2)CC1 | > 20 | – | > 20 | 1 to 20 | – | 1 to 20 | – | – | – | – |
| O=S(=O)(c1ccc(Oc2cccc3cccnc23)c2nonc12)N1CCN(c2ccccc2)CC1 | 1 to 20 | – | – | – | – | – | – | > 20 | – | – |
| CC(=O)C1(c2ccccc2)CCN(S(=O)(=O)c2ccc(Cl)c3nonc23)CC1 | > 20 | – | – | 1 to 20 | < 1 | < 1 | < 1 | – | – | – |
| O=S(=O)(Nc1cccc2nsnc12)c1ccc(Oc2ccccc2)cn1 | > 20 | – | – | > 20 | – | > 20 | – | – | – | – |
| O=S(=O)(c1ccc(Cl)c2nonc12)N1CCC2(CC1)OCc1ccccc12 | 1 to 20 | – | > 20 | 1 to 20 | – | 1 to 20 | – | > 20 | – | – |

— patent US20050282818A1, “Ubiquitin ligase inhibitors” (Rigel Pharmaceuticals, Inc., priority 2004, published 2005)
